In PMC3701624, “Three-Dimensional Structure of Human NLRP10/PYNOD Pyrin Domain Reveals a Homotypic Interaction Site Distinct from Its Mouse Homologue” (PLoS ONE, 2013):
These are yes or no findings as the source states them, for the method shown.

Target: human NLRP10/PYNOD pyrin domain (residues 1-100) (human) (UniProt Q86W26)
Test: SEC; huNLRP10 PYD alone, pH 7~8; both purified

binding: no binding
B1: human NLRP10/PYNOD pyrin domain (residues 1-100) (protein)
chain: MAMAKARKPREALLWALSDLEENDFKKLKFYLRDMTLSEGQPPLARGELEGLIPVDLAELLISKYGEKEAVKVVLKGLKVMNLLELVDQLSHICLHDYRE
